Experimental data as given in publication PMC5823910.
Results are given in words; binding and its absence hold for the method and conditions named. In cells and extracts the contact can be indirect. For part of these data: A result given as binding can be weak or reduced; the word gives no strength.

The chains behind the UniProt entries cited, without tags or fusion partners. Where a name states a change or a piece, a line headed by the entry shows the natural chain unless it says otherwise.
UniProt Q13315: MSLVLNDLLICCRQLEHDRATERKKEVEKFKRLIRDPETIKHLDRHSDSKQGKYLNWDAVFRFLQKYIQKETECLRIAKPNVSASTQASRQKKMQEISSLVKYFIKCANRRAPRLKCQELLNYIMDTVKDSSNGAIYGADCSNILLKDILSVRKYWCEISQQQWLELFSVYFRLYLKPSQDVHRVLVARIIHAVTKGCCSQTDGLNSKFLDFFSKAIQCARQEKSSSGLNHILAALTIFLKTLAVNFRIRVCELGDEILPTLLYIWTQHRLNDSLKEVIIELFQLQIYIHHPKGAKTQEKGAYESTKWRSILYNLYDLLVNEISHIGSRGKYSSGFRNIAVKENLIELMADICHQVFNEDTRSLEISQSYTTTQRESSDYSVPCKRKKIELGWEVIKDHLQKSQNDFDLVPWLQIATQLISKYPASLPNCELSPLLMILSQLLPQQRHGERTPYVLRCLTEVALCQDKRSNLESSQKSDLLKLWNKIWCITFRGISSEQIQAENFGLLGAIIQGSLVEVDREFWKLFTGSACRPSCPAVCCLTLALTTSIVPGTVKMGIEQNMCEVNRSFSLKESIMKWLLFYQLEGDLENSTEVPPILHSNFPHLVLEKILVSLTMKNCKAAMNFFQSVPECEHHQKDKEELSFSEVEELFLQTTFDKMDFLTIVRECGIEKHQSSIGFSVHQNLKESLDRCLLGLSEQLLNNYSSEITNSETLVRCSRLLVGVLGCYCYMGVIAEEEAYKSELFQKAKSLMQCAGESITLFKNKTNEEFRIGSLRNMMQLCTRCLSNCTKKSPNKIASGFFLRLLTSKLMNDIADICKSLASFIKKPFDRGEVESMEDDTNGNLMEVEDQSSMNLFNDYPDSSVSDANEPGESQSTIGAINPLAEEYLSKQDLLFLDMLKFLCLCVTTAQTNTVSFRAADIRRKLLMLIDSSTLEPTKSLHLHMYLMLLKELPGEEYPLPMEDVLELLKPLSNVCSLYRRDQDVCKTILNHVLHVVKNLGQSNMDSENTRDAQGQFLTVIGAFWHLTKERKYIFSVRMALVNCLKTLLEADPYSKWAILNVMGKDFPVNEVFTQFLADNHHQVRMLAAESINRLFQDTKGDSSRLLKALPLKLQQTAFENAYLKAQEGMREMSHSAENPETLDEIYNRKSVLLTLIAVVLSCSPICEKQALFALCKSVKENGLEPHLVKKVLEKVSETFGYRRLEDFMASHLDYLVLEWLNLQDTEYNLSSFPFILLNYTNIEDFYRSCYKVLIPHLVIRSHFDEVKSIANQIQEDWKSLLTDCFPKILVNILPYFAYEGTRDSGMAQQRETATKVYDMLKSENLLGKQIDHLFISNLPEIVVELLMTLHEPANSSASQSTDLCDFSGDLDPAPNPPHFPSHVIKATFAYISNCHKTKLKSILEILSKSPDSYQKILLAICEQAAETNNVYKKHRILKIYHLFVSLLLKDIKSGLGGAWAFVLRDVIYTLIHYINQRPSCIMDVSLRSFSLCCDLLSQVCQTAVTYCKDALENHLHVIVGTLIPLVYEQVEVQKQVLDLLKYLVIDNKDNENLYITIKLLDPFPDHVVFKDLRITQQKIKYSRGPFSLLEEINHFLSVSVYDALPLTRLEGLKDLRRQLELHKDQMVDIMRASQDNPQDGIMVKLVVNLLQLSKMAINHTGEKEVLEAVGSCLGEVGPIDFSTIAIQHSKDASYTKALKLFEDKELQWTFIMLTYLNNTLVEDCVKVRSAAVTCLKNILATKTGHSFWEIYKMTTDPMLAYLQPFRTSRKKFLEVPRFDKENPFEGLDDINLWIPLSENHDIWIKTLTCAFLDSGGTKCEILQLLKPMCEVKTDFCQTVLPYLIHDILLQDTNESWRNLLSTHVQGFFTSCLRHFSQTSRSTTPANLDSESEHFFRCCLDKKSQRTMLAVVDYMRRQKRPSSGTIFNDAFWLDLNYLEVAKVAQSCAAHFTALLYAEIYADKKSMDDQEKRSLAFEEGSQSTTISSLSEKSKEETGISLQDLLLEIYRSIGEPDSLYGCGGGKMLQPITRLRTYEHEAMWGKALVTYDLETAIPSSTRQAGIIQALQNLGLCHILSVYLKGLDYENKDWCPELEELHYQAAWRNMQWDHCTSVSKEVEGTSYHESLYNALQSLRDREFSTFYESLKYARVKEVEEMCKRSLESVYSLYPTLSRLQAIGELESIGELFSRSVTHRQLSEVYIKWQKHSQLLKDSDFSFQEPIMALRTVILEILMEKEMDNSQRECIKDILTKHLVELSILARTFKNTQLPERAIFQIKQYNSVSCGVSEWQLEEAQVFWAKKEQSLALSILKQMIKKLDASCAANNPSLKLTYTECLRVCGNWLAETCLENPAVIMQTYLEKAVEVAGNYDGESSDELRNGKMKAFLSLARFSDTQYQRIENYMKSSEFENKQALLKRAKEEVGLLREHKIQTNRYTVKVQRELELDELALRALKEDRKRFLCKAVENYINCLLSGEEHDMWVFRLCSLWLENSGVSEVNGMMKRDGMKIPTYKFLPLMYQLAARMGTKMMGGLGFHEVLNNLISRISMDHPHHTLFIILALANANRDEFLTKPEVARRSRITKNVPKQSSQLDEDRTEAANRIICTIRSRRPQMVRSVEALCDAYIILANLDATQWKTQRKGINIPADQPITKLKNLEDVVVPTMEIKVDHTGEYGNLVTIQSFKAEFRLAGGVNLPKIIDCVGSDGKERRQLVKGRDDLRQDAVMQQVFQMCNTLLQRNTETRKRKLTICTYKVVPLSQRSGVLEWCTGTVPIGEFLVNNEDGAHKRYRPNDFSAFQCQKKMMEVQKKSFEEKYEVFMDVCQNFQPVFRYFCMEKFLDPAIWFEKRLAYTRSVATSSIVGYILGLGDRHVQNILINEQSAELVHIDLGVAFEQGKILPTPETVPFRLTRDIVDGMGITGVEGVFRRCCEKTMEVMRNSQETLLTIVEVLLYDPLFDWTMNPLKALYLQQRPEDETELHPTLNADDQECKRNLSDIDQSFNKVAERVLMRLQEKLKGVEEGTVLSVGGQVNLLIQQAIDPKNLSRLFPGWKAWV
UniProt P67775: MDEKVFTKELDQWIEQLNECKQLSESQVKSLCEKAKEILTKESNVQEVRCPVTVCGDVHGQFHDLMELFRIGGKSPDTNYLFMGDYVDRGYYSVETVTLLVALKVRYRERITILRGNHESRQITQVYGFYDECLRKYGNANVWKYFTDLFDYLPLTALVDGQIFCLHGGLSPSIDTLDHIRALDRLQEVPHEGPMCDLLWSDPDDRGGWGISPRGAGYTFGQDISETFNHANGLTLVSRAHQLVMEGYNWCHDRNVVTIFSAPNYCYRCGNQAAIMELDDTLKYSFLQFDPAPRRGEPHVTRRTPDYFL

Tests used:
[1] = molecular target: T1, PR130, PP2A regulatory subunit encoded by PPP2R3A (human (endogenous in HCT116)) (UniProt Q06190); test: co-IP; PR130 immunoprecipitated from HCT116 cells treated with MS-275 (the discussion says hydroxyurea plus MS-275); precipitate probed for PP2A-A and PP2A-C (Supplementary Fig. 4e)
T1 sequence: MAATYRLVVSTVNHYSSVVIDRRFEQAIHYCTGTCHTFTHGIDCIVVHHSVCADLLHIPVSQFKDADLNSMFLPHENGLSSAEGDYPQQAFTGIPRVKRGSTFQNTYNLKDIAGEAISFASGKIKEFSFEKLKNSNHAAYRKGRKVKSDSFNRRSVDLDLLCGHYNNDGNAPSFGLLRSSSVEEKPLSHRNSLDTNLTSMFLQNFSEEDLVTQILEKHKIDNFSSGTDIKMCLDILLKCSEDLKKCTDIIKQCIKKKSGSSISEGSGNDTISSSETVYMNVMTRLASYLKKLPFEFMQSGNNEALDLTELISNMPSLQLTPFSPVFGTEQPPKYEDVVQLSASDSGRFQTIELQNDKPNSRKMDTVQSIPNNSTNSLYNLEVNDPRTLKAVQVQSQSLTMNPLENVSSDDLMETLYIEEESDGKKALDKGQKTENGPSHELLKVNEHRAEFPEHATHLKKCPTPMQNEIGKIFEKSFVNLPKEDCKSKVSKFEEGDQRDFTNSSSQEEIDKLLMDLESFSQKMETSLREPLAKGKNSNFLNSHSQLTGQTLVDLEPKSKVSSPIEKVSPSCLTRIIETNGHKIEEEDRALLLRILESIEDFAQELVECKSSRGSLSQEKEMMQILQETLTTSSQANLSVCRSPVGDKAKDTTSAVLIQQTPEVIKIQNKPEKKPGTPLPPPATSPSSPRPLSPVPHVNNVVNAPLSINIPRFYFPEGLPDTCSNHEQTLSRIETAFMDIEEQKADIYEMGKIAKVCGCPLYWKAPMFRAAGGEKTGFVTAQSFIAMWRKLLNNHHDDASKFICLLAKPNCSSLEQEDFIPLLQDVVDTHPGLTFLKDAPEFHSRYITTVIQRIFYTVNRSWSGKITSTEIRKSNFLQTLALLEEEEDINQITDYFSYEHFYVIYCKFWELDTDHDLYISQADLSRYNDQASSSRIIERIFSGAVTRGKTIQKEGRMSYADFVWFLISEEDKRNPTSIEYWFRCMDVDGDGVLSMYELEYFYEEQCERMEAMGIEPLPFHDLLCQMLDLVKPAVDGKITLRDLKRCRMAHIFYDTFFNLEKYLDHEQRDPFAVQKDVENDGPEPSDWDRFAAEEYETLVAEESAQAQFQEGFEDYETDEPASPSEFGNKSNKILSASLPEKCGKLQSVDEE

[2] = molecular target: ATM (ataxia telangiectasia mutated) (human (endogenous in HCT116 and K562)) (UniProt Q13315); test: co-IP; HCT116 and K562 cells; no PFA fixation; lysis in NET-N buffer; 2 mg protein with 0.8 µg anti-ATM antibody (Millipore PC116) or rabbit IgG overnight at 4 °C; four washes with NET-N buffer; probed for PP2A-A and PP2A-C (Supplementary Fig. 4f)

| Substance | binding [1] | binding [2] |
| --- | --- | --- |
| PP2A-A (structural subunit of PP2A, PPP2R1A/B) (human (endogenous in HCT116 and K562)) | binds | – |
| PP2A-C (catalytic subunit of PP2A, PPP2CA/B) (from UniProt P67775) (enzyme) | binds | no binding |
